Assay results from publication PMC8722725.
No constants are given. Whether binding was seen depends on the method and setting. Binding seen in cells or lysates may run through a third protein. Some entries that bind do so weakly or less than the wild type. Where a sequence is shown, tags or fusion partners need not be part of it.

By UniProt entry, the sequences of proteins in these tests, tags left out.
UniProt Q13148: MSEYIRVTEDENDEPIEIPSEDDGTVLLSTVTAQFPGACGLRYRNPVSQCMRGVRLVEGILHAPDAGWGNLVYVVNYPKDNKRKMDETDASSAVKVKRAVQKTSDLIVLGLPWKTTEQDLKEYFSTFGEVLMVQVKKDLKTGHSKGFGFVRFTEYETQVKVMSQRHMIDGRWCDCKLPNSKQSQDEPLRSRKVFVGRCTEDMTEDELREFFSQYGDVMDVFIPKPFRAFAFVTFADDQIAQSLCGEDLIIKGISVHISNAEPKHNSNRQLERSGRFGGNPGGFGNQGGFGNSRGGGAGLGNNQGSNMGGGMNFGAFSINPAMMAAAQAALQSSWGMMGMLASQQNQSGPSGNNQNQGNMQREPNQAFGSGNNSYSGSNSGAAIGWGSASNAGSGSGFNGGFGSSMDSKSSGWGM

Target: T1, GFP-tagged SIRT2 (SIRT2-GFP), wild type (UniProt Q8IXJ6)
T1 sequence: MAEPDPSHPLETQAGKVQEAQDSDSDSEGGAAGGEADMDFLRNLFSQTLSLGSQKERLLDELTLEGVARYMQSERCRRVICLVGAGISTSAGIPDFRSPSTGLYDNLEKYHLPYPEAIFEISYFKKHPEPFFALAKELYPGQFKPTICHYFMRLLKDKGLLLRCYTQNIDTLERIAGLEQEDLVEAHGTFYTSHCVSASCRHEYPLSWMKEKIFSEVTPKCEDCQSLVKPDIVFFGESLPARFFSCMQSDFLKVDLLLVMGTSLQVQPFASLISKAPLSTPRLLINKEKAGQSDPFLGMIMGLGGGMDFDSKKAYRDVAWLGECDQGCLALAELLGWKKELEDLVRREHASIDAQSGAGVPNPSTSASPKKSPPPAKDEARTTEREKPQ
Experiment: co-IP; GFP-Trap agarose beads on lysate of isolated HeLa nuclei (MNase digestion, RIPA); cells uninfected or infected with L. monocytogenes for 3 hours; also in HeLa stably expressing SIRT2-GFP and transfected with mCherry or RNaseH1; washes up to 300 mM NaCl; blot for TDP-43 and GFP

binding: binds
Substance: TDP-43 (endogenous, nuclear) (from UniProt Q13148 1-414)
